Assay results reported in article doi:10.1101/2025.10.14.682030.

T1: MCUR1-StrepII-HA-His6 (mitochondrial calcium uniporter regulator 1, C-terminally tagged) (human) (UniProt Q96AQ8)
T1 sequence: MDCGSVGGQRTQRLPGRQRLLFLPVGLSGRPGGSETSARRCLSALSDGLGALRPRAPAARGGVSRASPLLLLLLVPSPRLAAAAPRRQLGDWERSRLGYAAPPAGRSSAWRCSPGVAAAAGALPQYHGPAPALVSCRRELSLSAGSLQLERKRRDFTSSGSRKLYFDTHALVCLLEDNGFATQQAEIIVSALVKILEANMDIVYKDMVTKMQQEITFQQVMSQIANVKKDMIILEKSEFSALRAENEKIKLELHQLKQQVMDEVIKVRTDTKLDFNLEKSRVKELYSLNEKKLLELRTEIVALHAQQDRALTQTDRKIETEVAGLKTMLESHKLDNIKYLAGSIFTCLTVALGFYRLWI


The molecules below were run against T1, MCUR1-StrepII-HA-His6 (mitochondrial calcium uniporter regulator 1, C-terminally tagged) (human) (assay: affinity purification with mass spectrometry).

| binding | Molecule |
| --- | --- |
| binds | Phenylalanyl-tRNA synthetase 2, mitochondrial (FARS2) (human (endogenous in HEK-293)) (enzyme) |
| binds | Coiled-coil domain-containing protein 90B (CCDC90B), endogenous in HEK-293 (protein, UniProt Q9GZT6 43-254) GYDRRPVDITPLEQRKLTFDTHALVQDLETHGFDKTQAETIVSALTALSNVSLDTIYKEMVTQAQQEITVQQLMAHLDAIRKDMVILEKSEFANLRAENEKMKIELDQVKQQLMHETSRIRADNKLDINLERSRVTDMFTDQEKQLMETTTEFTKKDTQTKSIISETSNKIDAEIASLKTLMESNKLETIRYLAASVFTCLAIALGFYRFWK |
| binds | Tryptophanyl-tRNA synthetase 2, mitochondrial (WARS2) (enzyme, UniProt Q9UGM6 19-360) LHKGSAAAPALQKDSKKRVFSGIQPTGILHLGNYLGAIESWVRLQDEYDSVLYSIVDLHSITVPQDPAVLRQSILDMTAVLLACGINPEKSILFQQSQVSEHTQLSWILSCMVRLPRLQHLHQWKAKTTKQKHDGTVGLLTYPVLQAADILLYKSTHVPVGEDQVQHMELVQDLAQGFNKKYGEFFPVPESILTSMKKVKSLRDPSAKMSKSDPDKLATVRITDSPEEIVQKFRKAVTDFTSEVTYDPAGRAGVSNIVAVHAAVTGLSVEEVVRRSAGMNTARYKLAVADAVIEKFAPIKREIEKLKLDKDHLEKVLQIGSAKAKELAYTVCQEVKKLVGFL |
| binds | Isoleucyl-tRNA synthetase 2, mitochondrial (IARS2) (enzyme, UniProt Q9NSE4 49-1012) SNHQPNSNSGRYRDTVLLPQTSFPMKLLGRQQPDTELEIQQKCGFSELYSWQRERKVKTEFCLHDGPPYANGDPHVGHALNKILKDIANRFHMMNGSKIHFVPGWDCHGLPIEIKVLSELGREAQNLSAMEIRKKARSFAKAAIEKQKSAFIRWGIMADWNNCYYTFDGKYEAKQLRTFYQMYDKGLVYRSYKPVFWSPSSRTALAEAELEYNPEHVSRSIYVKFPLLKPSPKLASLIDGSSPVSILVWTTQPWTIPANEAVCYMPESKYAVVKCSKSGDLYVLAADKVASVASTLETTFETISTLSGVDLENGTCSHPLIPDKASPLLPANHVTMAKGTGLVHTAPAHGMEDYGVASQHNLPMDCLVDEDGVFTDVAGPELQNKAVLEEGTDVVIKMLQTAKNLLKEEKLVHSYPYDWRTKKPVVIRASKQWFINITDIKTAAKELLKKVKFIPGSALNGMVEMMDRRPYWCISRQRVWGVPIPVFHHKTKDEYLINSQTTEHIVKLVEQHGSDIWWTLPPEQLLPKEVLSEVGGPDALEYVPGQDILDIWFDSGTSWSYVLPGPDQRADLYLEGKDQLGGWFQSSLLTSVAARKRAPYKTVIVHGFTLGEKGEKMSKSLGNVIHPDVVVNGGQDQSKEPPYGADVLRWWVADSNVFTEVAIGPSVLNAARDDISKLRNTLRFLLGNVADFNPETDSIPVNDMYVIDQYMLHLLQDLANKITELYKQYDFGKVVRLLRTFYTRELSNFYFSIIKDRLYCEKENDPKRRSCQTALVEILDVIVRSFAPILPHLAEEVFQHIPYIKEPKSVFRTGWISTSSIWKKPGLEEAVESACAMRDSFLGSIPGKNAAEYKVITVIEPGLLFEIIEMLQSEETSSTSQLNELMMASESTLLAQEPREMTADVIELKGKFLINLEGGDIREESSYKVIVMPTTKEKCPRCWKYTAESSDTLCPRCAEVVSGK |

These are yes or no findings as the source states them, for the method shown. In cells and extracts the contact can be indirect. A yes stands for co-enrichment or nearness to the bait. Other partners may have been found. Sequences can lack the tags named with a protein.
